Data reported in PubChem BioAssay AID651768 (National Center for Advancing Translational Sciences (NCATS), 2012).
Out of some 360,000 compounds screened, about 1,700 (0.47%) were called active. Inconclusive results, whose numbers are uncertain, are shown with a selection of clear calls. Calls come from the whole dose curve; as a rule, active = well fitted inhibition curve with a large enough effect; inconclusive = small, poorly fitted or top-dose-only effect; inactive = no such curve, though single readings can be large or run the other way. Potencies beside an inconclusive call are fits to weak or partial responses and may not hold up.

Protein sequences, listed by entry. Tags and fused reporters are not part of them.
UniProt Q14191, whole entry, looked up: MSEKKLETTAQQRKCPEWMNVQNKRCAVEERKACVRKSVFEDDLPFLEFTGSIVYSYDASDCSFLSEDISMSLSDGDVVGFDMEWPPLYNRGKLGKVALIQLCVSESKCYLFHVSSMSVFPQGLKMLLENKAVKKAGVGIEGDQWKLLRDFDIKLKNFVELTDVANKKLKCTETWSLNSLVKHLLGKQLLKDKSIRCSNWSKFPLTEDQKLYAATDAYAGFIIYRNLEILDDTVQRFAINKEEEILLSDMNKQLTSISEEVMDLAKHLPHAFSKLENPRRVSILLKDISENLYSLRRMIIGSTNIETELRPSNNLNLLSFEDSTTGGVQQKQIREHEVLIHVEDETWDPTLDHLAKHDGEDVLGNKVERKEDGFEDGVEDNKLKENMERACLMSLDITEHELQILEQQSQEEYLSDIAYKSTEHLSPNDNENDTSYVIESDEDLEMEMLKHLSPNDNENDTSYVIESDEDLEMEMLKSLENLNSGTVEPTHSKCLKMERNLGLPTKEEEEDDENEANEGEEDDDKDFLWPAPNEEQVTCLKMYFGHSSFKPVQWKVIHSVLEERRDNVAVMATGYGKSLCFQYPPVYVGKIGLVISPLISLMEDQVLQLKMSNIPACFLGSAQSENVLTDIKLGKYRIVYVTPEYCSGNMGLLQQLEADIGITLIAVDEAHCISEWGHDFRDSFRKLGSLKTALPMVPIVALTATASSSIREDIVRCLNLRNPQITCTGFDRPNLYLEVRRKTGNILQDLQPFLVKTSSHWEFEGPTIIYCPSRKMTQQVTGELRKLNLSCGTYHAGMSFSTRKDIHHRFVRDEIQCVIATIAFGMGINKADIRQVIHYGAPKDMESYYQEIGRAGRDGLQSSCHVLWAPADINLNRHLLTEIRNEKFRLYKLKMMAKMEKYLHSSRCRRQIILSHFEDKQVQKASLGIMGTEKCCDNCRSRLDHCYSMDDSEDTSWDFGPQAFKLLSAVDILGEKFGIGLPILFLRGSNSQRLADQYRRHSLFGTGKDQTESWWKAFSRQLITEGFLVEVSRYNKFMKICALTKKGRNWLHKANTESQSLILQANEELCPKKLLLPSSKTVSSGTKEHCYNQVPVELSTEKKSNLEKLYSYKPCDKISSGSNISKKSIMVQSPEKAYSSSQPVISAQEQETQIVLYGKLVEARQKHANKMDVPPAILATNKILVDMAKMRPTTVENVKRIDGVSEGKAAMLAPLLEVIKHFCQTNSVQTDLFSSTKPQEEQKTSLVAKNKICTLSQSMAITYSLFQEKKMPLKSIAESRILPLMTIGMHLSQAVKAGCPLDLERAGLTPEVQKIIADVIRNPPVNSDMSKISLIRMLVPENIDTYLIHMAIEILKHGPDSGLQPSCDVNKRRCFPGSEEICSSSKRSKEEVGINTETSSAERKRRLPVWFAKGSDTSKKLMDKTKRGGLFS

biological target: Bifunctional 3'-5' exonuclease/ATP-dependent helicase WRN (Homo sapiens) (UniProt Q14191); test: qHTS for Inhibitors of WRN Helicase; settings: WRN helicase unwinding, fluorescent forked duplex, kinetic; activity change, negative = inhibition: at 114 µM (top of the series) unless noted; note: nearly all actives have a fitted effect of over 55% in size
How it was run: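 Enzyme (20 nM final) and test compound sit together 15 min at room temperature before substrate addition. Substrate is a single-forked duplex oligonucleotide (100 nM) labelled with fluorophore and quencher, with 2 mM ATP; helicase unwinding raises red fluorescence, read kinetically.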
% is set by controls: 0 for no effect and ±100 for the full control effect; potency is the fitted concentration of half-maximal effect.

SMILES	Potency	activity change, negative = inhibition
COc1ccccc1C(=O)N=Nc1c(O)[nH]c2ccc([N+](=O)[O-])cc12	inactive	–
COC(=O)c1c(NC(=O)Cc2cccs2)sc2c1CCCC2	inconclusive: 79.4 µM [inhibitor, partial curve]	–
COc1cc(-c2cc(NC=O)c3ncc(-c4cccc(C(=O)N(C)C)c4)n3c2)cc(OC)c1OC	inconclusive: 89.1 µM [inhibitor, single point]	–
O=C(N/N=C/C=C\c1ccccc1[N+](=O)[O-])c1cc(-c2ccccc2)nc2ccccc12	inconclusive: 25.1 µM [inhibitor, single point]	–
COc1ccc([N+](=O)[O-])cc1NC(=O)C(C)N1CCCC1 (stereo unspecified)	inconclusive: 89.1 µM [inhibitor, single point]	–
COc1ccc(OC)c(NC(=O)c2cc(-c3cc(C)ccc3O)n[nH]2)c1	inactive	–
Cc1ccc(C(=O)COC(=O)c2ccc(Cl)c(N)c2)s1	inconclusive: 20 µM [inhibitor, single point]	–
O=C(O)CSCC(=O)N1CCCN(c2nc3ccc(Cl)cc3s2)CC1	inconclusive: 10 µM [inhibitor, full curve, poor fit]	–
O=c1c2ccccc2sc2ccccc12	inconclusive: 20 µM [inhibitor, full curve, poor fit]	–
CCc1csc(CNC(=O)C2CCC(=O)N(Cc3cccc(OC)c3)C2)n1 (stereo unspecified)	inactive	–
CCOC1=CC2=C(C(=O)C(Cl)=CC2=O)[C@@H]2CN(S(=O)(=O)c3ccc(C)cc3)[C@@H](c3ccccc3)[C@H]12	inactive	–
C/C(=N/NC(=O)c1cc2ccccc2cc1O)C1C(=O)c2ccccc2C1=O	active: 44.7 µM	–
O=C(CC1(O)C(=O)N(CCc2ccccc2)c2ccccc21)c1ccco1 (stereo unspecified)	inactive	–
CN(C)/C=C/c1c([N+](=O)[O-])c2ccc(O)cc2n1-c1ccccc1	inactive	–
c1csc(C2Nc3cccc4cccc(c34)N2)c1	inconclusive: 16.8 µM [inhibitor, single point]	–
CCN(CC)C(=O)COC(=O)c1cc(-c2ccco2)nc2ccccc12	inconclusive: 56.2 µM [inhibitor, partial curve]	–
O=c1oc(-c2ccccc2NS(=O)(=O)c2ccc(Cl)cc2)nc2ccccc12	inconclusive: 3.98 µM [inhibitor, full curve, poor fit]	–
Clc1ccccc1-c1nc(/C=N/N2CCOCC2)c2ccccn12	inconclusive: 39.8 µM [inhibitor, single point]	–
Cc1ccc2[nH]c(=O)c(CN(CCO)Cc3nnnn3CCc3ccccc3)cc2c1	inconclusive: 79.4 µM [inhibitor, partial curve]	–
c1ccc(OCc2nnc3sc(-c4cccs4)nn23)cc1	inconclusive: 56.2 µM [inhibitor, partial curve]	–
Cn1nc([N+](=O)[O-])nc1S(C)(=O)=O	inactive	–
N#C/C(=C\c1ccc(O)c(O)c1)C(=O)c1ccc(O)c(O)c1	active: 0.168 µM	–
Cc1ccc(NC(=O)NNC(=O)COc2ccc([N+](=O)[O-])cc2)cc1C	inconclusive: 100 µM [inhibitor, single point]	–
O=S(=O)(c1ccccc1)c1ncc(C(F)(F)F)cc1Cl	inconclusive: 79.4 µM [inhibitor, single point]	–

SMILES	Potency	activity change, negative = inhibition
CCCN(C(=O)c1cc(-c2ccco2)nc2ccccc12)c1c(N)n(Cc2ccccc2)c(=O)[nH]c1=O	inconclusive: 28.2 µM [inhibitor, full curve, poor fit]	–
Cc1cc(/C=C2\SC(=S)NC2=O)cc(C)c1O	–	inactive: -10.4% [at 11.6 µM]
O=C(O)c1cc(O)c2c(c1)[C@@H]([C@H]1c3cc(C(=O)O)cc(O)c3C(=O)c3c(O[C@@H]4O[C@H](CO)[C@@H](O)[C@H](O)[C@H]4O)cccc31)c1cccc(O[C@@H]3O[C@H](CO)[C@@H](O)[C@H](O)[C@H]3O)c1C2=O	active: 3.16 µM	–
Cc1ccc2nc(NC(=O)CSc3nc(=O)n(CCCN(C)C)c4c3CCC4)sc2c1	inconclusive: 79.4 µM [inhibitor, single point]	–
COc1ccc(/C=C/C(=O)c2cc(Br)ccc(=O)c2O)cc1	inconclusive: 31.6 µM [inhibitor, partial curve]	–
O=C1CCCCCN1Sc1ccccc1	inconclusive: 50.1 µM [inhibitor, partial curve]	–
CCOc1cc(OCC)cc(C(=O)N2CCC[C@H]2C(=O)N2CCC[C@H]2C(=O)N(C)Cc2ccccc2)c1	inactive	–
Cc1ccc(C(=O)/C=C/Nc2ccc(S(=O)(=O)Nc3cc(C)nc(C)n3)cc2)cc1	inconclusive: 70.8 µM [inhibitor, single point]	–
O=C1c2cccc(NCCCNCCO)c2C(=O)c2cccc(NCCCNCCO)c21	active: 10 µM	–
O=S(=O)(O)c1cc(OS(=O)(=O)c2ccccc2)cc2ccccc12	inactive	–
COc1cccc(/C=N/NC(=O)c2cc3c(OC)cccc3[nH]2)c1O	inconclusive: 39.8 µM [inhibitor, single point]	–
COC(=O)N/N=C\c1ccc(-c2cc(Cl)c(Cl)cc2Cl)o1	inconclusive: 11.2 µM [inhibitor, partial curve]	–
O=C(O)c1cc(-c2ccc(/C=C3\NC(=O)N(c4ccc(Cl)cc4)C3=O)o2)ccc1Cl	active: 35.5 µM	–
Cc1ccc(NC(=O)c2cc(-c3ccc(C)o3)nc3ccccc23)cc1	inconclusive: 56.2 µM [inhibitor, partial curve]	–
CCc1[nH]c(=O)[nH]c1C(C)S(=O)(=O)c1ccc(C)cc1 (stereo unspecified)	inconclusive: 39.8 µM [inhibitor, partial curve]	–
C/C(=C\c1ccco1)C1C(C#N)=C(N)OC2=C1C(=O)CC(C)(C)C2 (stereo unspecified)	inconclusive: 50.1 µM [inhibitor, partial curve]	–
CCCCn1c(NC(=S)Nc2ccccc2)nc2ccccc21	inactive	–
CC1(C)CC(=O)C(C(c2ccc(F)cc2)C2C(=O)CC(C)(C)CC2=O)C(=O)C1	inactive	–
COc1cc(/C=C2\S/C(=N/S(=O)(=O)c3ccccc3)NC2=O)c([N+](=O)[O-])cc1OC	inconclusive: 16.8 µM [inhibitor, partial curve]	–
COc1ccc(Cn2c(-c3ccc(C)cc3)nc3c(c(=O)c4ccccc4n3C)c2=O)cc1	inconclusive: 39.8 µM [inhibitor, partial curve]	–
Cc1csc(-c2ccc3cc(Cl)cc(Cl)c3n2)n1	inactive	–
CCOC(=O)CN1C(=O)N[C@@H](c2ccc(Br)cc2)C(C(=O)OC)=C1C	inactive	–
O=C1CSC(=S)N1/N=C/c1ccc2c(c1)OCCO2	inactive	–
CCN(CC)c1nc(-c2ccccc2)nc2ccccc12	inconclusive: 10 µM [inhibitor, full curve, poor fit]	–

SMILES	Potency	activity change, negative = inhibition
CCSc1nnc(NC(=O)c2ccc3nc[nH]c3c2)s1	inconclusive: 39.8 µM [inhibitor, full curve, poor fit]	–
N#Cc1ccccc1CN1C(=O)S/C(=C/c2cccn2-c2cccc(C(=O)O)c2)C1=O	inconclusive: 33.6 µM [inhibitor, partial curve]	–
NC(=O)C1CCN(C(=O)CN2CCc3ccccc32)CC1	inconclusive: 56.2 µM [inhibitor, partial curve, poor fit]	–
CCC(=O)OCC(=O)Nc1ccc(OC)cc1[N+](=O)[O-]	inactive	–
O=C(Nc1ccc(Br)cc1Cl)c1cnccn1	inconclusive: 13.4 µM [inhibitor, partial curve]	–
Cc1nc(-c2ccccc2)sc1-c1nnc(C2CC2)o1	inconclusive: 10 µM [inhibitor, full curve, poor fit]	–
COc1ccccc1C(=O)Nc1nnc(SCC(=O)Nc2ccc3c(c2)oc2ccccc23)s1	inconclusive: 15.8 µM [inhibitor, single point]	–
CCN(CC(=O)NCc1cccs1)C(=O)c1ccc(S(=O)(=O)Nc2ccccc2F)cc1	inactive	–
Nc1nc2ccccc2n1CCOc1ccc(Br)cc1	inactive	–
O=S(=O)(c1ccc(F)cc1)N1CCCC1	inconclusive: 89.1 µM [inhibitor, single point]	–
CCc1ccc(C(=O)OCC(=O)Nc2c(C)n(C)n(-c3ccccc3)c2=O)cc1	inactive	–
CN1CCN(c2ccc(CNS(=O)(=O)Cc3ccc(Cl)cc3)cc2)CC1	inactive	–
CCOc1ccc(/C(C)=N/NC(=O)Cn2nc([N+](=O)[O-])cc2C)cc1	inactive	–
C[C@H](O)[C@@H]1C(=O)N2CCc3c([nH]c4ccccc34)[C@@H]2C[C@@H]1N(C)C(=O)c1cc(Cl)cc(Cl)c1	inactive	–
Nn1cnnc1N/N=C/c1ccc(Cl)cc1Cl	inactive	–
CCOC(=O)c1sc(=S)n(-c2ccccc2)c1N(C(C)=O)C(C)=O	inconclusive: 28.2 µM [inhibitor, single point]	–
CCOC(=O)CCP(=O)(O)C(O)c1ccccc1 (stereo unspecified)	inactive	–
O=C(O)c1ccc(-n2c(-c3cc(-c4ccco4)[nH]n3)n[nH]c2=S)cc1	inconclusive: 44.7 µM [inhibitor, partial curve]	–
CCCN(CCC)C(=O)c1cc(S(=O)(=O)N2CCCCC2)c[nH]1	inactive	–
Cc1cccn2c(=O)c(C=O)c(Cl)nc12	inconclusive: 3.55 µM [inhibitor, full curve, poor fit]	–
O=C1ON=C(c2ccccc2)/C1=C/c1ccco1	inconclusive: 50.1 µM [inhibitor, partial curve]	–
O=Cc1ccc(O)c(O)c1	inactive	–
Cc1cc(CNC(=O)c2cc(COc3ccc(F)c(F)c3)on2)nn1C	inconclusive: 89.1 µM [inhibitor, single point]	–

16 successive records already listed:
SMILES	Potency	activity change, negative = inhibition
NC(=O)C1CCN(C(=O)CN2CCc3ccccc32)CC1	inconclusive: 56.2 µM [inhibitor, partial curve, poor fit]	–
CCC(=O)OCC(=O)Nc1ccc(OC)cc1[N+](=O)[O-]	inactive	–
O=C(Nc1ccc(Br)cc1Cl)c1cnccn1	inconclusive: 13.4 µM [inhibitor, partial curve]	–
Cc1nc(-c2ccccc2)sc1-c1nnc(C2CC2)o1	inconclusive: 10 µM [inhibitor, full curve, poor fit]	–
COc1ccccc1C(=O)Nc1nnc(SCC(=O)Nc2ccc3c(c2)oc2ccccc23)s1	inconclusive: 15.8 µM [inhibitor, single point]	–
CCN(CC(=O)NCc1cccs1)C(=O)c1ccc(S(=O)(=O)Nc2ccccc2F)cc1	inactive	–
Nc1nc2ccccc2n1CCOc1ccc(Br)cc1	inactive	–
O=S(=O)(c1ccc(F)cc1)N1CCCC1	inconclusive: 89.1 µM [inhibitor, single point]	–
CCc1ccc(C(=O)OCC(=O)Nc2c(C)n(C)n(-c3ccccc3)c2=O)cc1	inactive	–
CN1CCN(c2ccc(CNS(=O)(=O)Cc3ccc(Cl)cc3)cc2)CC1	inactive	–
CCOc1ccc(/C(C)=N/NC(=O)Cn2nc([N+](=O)[O-])cc2C)cc1	inactive	–
C[C@H](O)[C@@H]1C(=O)N2CCc3c([nH]c4ccccc34)[C@@H]2C[C@@H]1N(C)C(=O)c1cc(Cl)cc(Cl)c1	inactive	–
Nn1cnnc1N/N=C/c1ccc(Cl)cc1Cl	inactive	–
CCOC(=O)c1sc(=S)n(-c2ccccc2)c1N(C(C)=O)C(C)=O	inconclusive: 28.2 µM [inhibitor, single point]	–
CCOC(=O)CCP(=O)(O)C(O)c1ccccc1 (stereo unspecified)	inactive	–
O=C(O)c1ccc(-n2c(-c3cc(-c4ccco4)[nH]n3)n[nH]c2=S)cc1	inconclusive: 44.7 µM [inhibitor, partial curve]	–
